Most values lie at the floor of the assay. Slopes are relative: functional sequences can read slightly below zero.

The test system of the data set is Saccharomyces cerevisiae PS128 hsf1 delta, HSF1(1-493) fusion. Description: growth estimate (transactivation domain function in HSF1 fusion, heat-shock survival) (a.u. (slope of normalised read count over time)); higher = stronger growth at 37°C, i.e. more transactivation activity. The following applies: library: random library.
As for PEKDRAIARGKQTGAYPEIN, the growth estimate was under -0.25. As to TSLSV, the growth estimate is under -0.25. On to FSGENKRVPCR, for which the growth estimate was under -0.25.

As for RWGGWTVS, the growth estimate is under -0.25.

With RTTSRSLRRRGPPIQREPTQ, the growth estimate was -0.235. Then VNVLISRL, with under -0.25; and ATLVGQVARTLTQDVLSGGS, with under -0.25.

On to GQLQEIRGIKRCQYLRHTDY, for which the growth estimate is under -0.25. Then SRAGPTRARGPISHLPEQHA, with under -0.25. As for GCRQHLHYGVAKQGYFRA, the growth estimate was under -0.25.

As to APSDSLRGS, the growth estimate was under -0.25. With AWQNARPCFLLPTRR, the growth estimate is under -0.25. Then LNCQRALWRER, with under -0.25; and VVRSWSPYQCRTFCGPVRPF, with under -0.25.

Turning to VSFER, the growth estimate is under -0.25.

With MALNRLE, the growth estimate is under -0.25.

With AFRMKIKQNFKC, the growth estimate is under -0.25. In the case of TSSKHLWFIEARFVGT, the growth estimate is under -0.25. To GRSDVTRMG belongs under -0.25; to IWLRKRCPHLRLPTGVPLQV, under -0.25. To HLGLSSQEGNAPVLN belongs under -0.25. Then VKLGVGSDRKTDPYID, with under -0.25.

With PMTSSLVERLHCIRNGHRLL, the growth estimate was under -0.25. To PKLDRDSEP belongs under -0.25; to GRLGCPLWYVSPLRVLCGEQ, under -0.25; to VHPVCLSFSLTL, under -0.25. Then FGMTRYLFCDEHKGQMRERA, with under -0.25. DCAWLALPSRRHWPCRKFVR: the growth estimate was under -0.25. Regarding PRILVCERRGPK, the growth estimate was under -0.25. As for ASYGQHNTE, the growth estimate was under -0.25. To RVSGGRCKRHPLVERWTRLS belongs under -0.25. Then SRRSADHMRSRLYGIAAGVS, with under -0.25. Consider GNRRCKR, for which the growth estimate is under -0.25. In the case of AWVISWRSNPDALGPHCRGP, the growth estimate is under -0.25.

Consider FRSRQDLGQLENARGQVDTA, for which the growth estimate is under -0.25.

With SLGYR, the growth estimate was under -0.25. As to MSN, the growth estimate is under -0.25. For the substance RHRVDFGPIVSIR, the growth estimate was under -0.25. Take LCCTERFVVNRQSP: the growth estimate was under -0.25. To ANVHARVPGPISGHMSVSRL belongs under -0.25. Then LNREYL, with under -0.25; and CIGNLGLLHECERPLLGFSY, with under -0.25. Regarding ATLEIHFGAP, the growth estimate is under -0.25. With RELATPSTAA, the growth estimate is under -0.25. As to QPYLRLYSLSLLREGRGRGR, the growth estimate is under -0.25. As for GGL, the growth estimate is under -0.25. In the case of LNYS, the growth estimate was under -0.25. Then PVTVSAGPY, with under -0.25; and TPEDDCIEFGGIGIERSSKG, with under -0.25. Then NLTKSLQSTH, with under -0.25; and KVRSQGRL, with under -0.25. For RAYLFPATEVTRLRHLLSSR, the growth estimate was under -0.25. To DSITVTEDR belongs under -0.25. As to QVKDQRRGRVPEKRVQRWNL, the growth estimate was under -0.25.

Regarding AHTRVDSVVGMPRF, the growth estimate was under -0.25. Then PNFPRMDRCIDVQLIDWNRR, with under -0.25. Then YTECAYYGVHPYATSAVNT, with under -0.25; and HVIRSPAYELTKVRYLS, with under -0.25; and NALELAWAPPTAMLAENGNT, with under -0.25. Take TALRSRDSKSDRITGTDVGR: the growth estimate is under -0.25.

GKDRNTTRLCSACYRNVSPR: the growth estimate was under -0.25. Then VRTTLTRQCHSSVIAPRSFS, with under -0.25; and RMLYDPDTKVDVGG, with under -0.25; and MNGCSGEGKGDLRWSWGSAP, with under -0.25.

Consider VVLALGL, for which the growth estimate is under -0.25. To DRSVLRT belongs under -0.25. For the substance PNWRSGIFNRTGGKKDTGFV, the growth estimate is under -0.25.

For the substance GHSLFRGGLPLMWKTTRGIC, the growth estimate is under -0.25.

Consider GVLIVRQAAILAGPKTPSDI, for which the growth estimate was under -0.25.

Turning to VLGRHWRYSR, the growth estimate is under -0.25. Take CQAFCCM: the growth estimate is under -0.25.

On to LGQSGSRKW, for which the growth estimate was -0.248.

With QYEGVRRNHADSNTVIKRMP, the growth estimate is under -0.25. As for WYGF, the growth estimate was under -0.25. KEVKHAVGGGMLSIVTRLFS: the growth estimate is under -0.25. For VYVRLNLAEATIC, the growth estimate was under -0.25. To AECADGKRPPGLVASRG belongs -0.198.

With RWWVYGESLILSERKRLAGV, the growth estimate is under -0.25. Then LRVN, with under -0.25.

Source of the values: the supplement of paper PMC5949888.
